Values from PubChem BioAssay AID1671195 (Yale University, 2021).
This is an unselected part of about 22,000 reagents. About 1,510 of all reagents (6.9%) count as active. 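Active includes knockdowns raising or lowering LDL uptake; positive z-scores mean more uptake, negative mean less.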 Unmarked entries are inactive.

Aim: 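Regulators of LDL receptor activity judged by labelled LDL uptake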 (primary screen)
System: human Huh7 hepatoma cells
Reagents: siRNA pool against human genes, 18 nM
Time to read-out: about 2 to 2.5 days of knockdown, then 8 h LDL uptake
Challenge: DiI-labelled LDL at 30 µg/ml for 8 h, in lipoprotein-deficient serum medium
Detection: 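Per-cell DiI-LDL intensity by automated imaging; well means scaled to the plate median and given as a robust z-score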
Scale: robust z-score: higher = more LDL uptake after knockdown
Call rule: 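Active when two or more replicates show a robust z-score above 2 or below -2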

target gene | robust z-score, replicate 1 | robust z-score, replicate 2 | robust z-score, replicate 3
ARPC2 (GeneID 10109) | 0.188 | -0.445 | -0.0226
TAF11 (GeneID 6882) | 0.065 | -0.196 | 0.0449
RPRML (GeneID 388394) | 0.724 | 1.08 | 0.61
OR2F2 (GeneID 135948) | 1.01 | 1.11 | 2.37
LINC00964 (GeneID 157381) | 0.595 | 0.585 | 0.23
GNL1 (GeneID 2794) | -0.711 | -0.465 | -1.21
LOC388929 (retired record) (GeneID 388929) | 1.13 | 1.6 | 1.37
GABARAP (GeneID 11337) | 1.68 | 1.11 | 0.662
CAPRIN2 (GeneID 65981) | 0.54 | 1.08 | 0.431
GPR3 (GeneID 2827) | -1.66 | -1.38 | -1.51
COL26A1 (GeneID 136227) | 3.15 (active) | 3.31 | 4.16
CNIH1 (GeneID 10175) | 1.05 | 1.42 | 0.977
SELE (GeneID 6401) | -0.854 | -0.886 | -0.795
IL18BP (GeneID 10068) | -0.414 | -0.571 | -0.822
USP5 (GeneID 8078) | -1.39 | -0.539 | -1.17
LOC392584 (retired record) (GeneID 392584) | -1.27 | -0.718 | -0.858
BMP1 (GeneID 649) | -1.47 | -1.47 | -1.5
GMPR2 (GeneID 51292) | 0.0364 | 1.18 | 0.447
CPSF6 (GeneID 11052) | 2.16 | 1.2 | 1.62
SEMA3C (GeneID 10512) | 1 | 0.796 | 0.117
AIRIM (GeneID 54955) | 0.953 | 2.46 | 0.00598
ZMYND19 (GeneID 116225) | -1.36 | -1.23 | -2
PAK1IP1 (GeneID 55003) | 4.4 | 1.44 | 0.83
CENPL (GeneID 91687) | -0.346 | 0.405 | 0.00838
LOC392222 (retired record) (GeneID 392222) | 0.891 | 0.868 | 0.58
MAPKAPK5-AS1 (GeneID 51275) | 1.2 | 1.21 | 1.12
SLC6A5 (GeneID 9152) | -1.23 | -0.873 | -1.03
B3GNT8 (GeneID 374907) | -0.906 | -0.486 | -0.565
ANKRD18A (GeneID 253650) | -0.159 | -0.00805 | -0.0391
SAMD1 (GeneID 90378) | 0.136 | 1.04 | 0.773
LOC153134 (retired record) (GeneID 153134) | 0.18 | 0.807 | 0.184
CCDC124 (GeneID 115098) | -0.655 | -1.4 | -1.36
C1orf174 (GeneID 339448) | -0.709 | -0.722 | -0.539
C7orf57 (GeneID 136288) | -0.199 | -0.673 | -0.79
CWC27 (GeneID 10283) | 0.279 | 0.793 | 0.0881

No new results follow: 3 of the entries above.
target gene | robust z-score, replicate 1 | robust z-score, replicate 2 | robust z-score, replicate 3
SELE (GeneID 6401) | -0.854 | -0.886 | -0.795
IL18BP (GeneID 10068) | -0.414 | -0.571 | -0.822
USP5 (GeneID 8078) | -1.39 | -0.539 | -1.17

The list goes on:
target gene | robust z-score, replicate 1 | robust z-score, replicate 2 | robust z-score, replicate 3
CNN1 (GeneID 1264) | -0.559 | 0.0652 | -0.203
RAD9B (GeneID 144715) | 0.952 | -0.0665 | 1.15
LDAH (GeneID 60526) | -1.02 | -1.22 | -1.49
LOC284623 (retired record) (GeneID 284623) | 0.0389 | 0.0258 | -0.0926
LINC02796 (GeneID 339468) | 0.448 | 0.671 | 0.434
OR6N1 (GeneID 128372) | 0.341 | 0.236 | 0.494
PRKCE (GeneID 5581) | 1.35 | -0.257 | 1.1
DEFB106A (GeneID 245909) | -0.165 | 0.0826 | -0.0899
C12orf57 (GeneID 113246) | -0.431 | 0.0822 | 0.0854
INAVA (GeneID 55765) | -0.625 | 1 | -1.08
LIG3 (GeneID 3980) | -0.0772 | -0.329 | -1.26
MIOS (GeneID 54468) | -0.837 | 0.031 | 0.615
CORO7 (GeneID 79585) | 0.82 | 0.0326 | 1.4
LOC391144 (retired record) (GeneID 391144) | -0.61 | -0.224 | -0.37
RNF146 (GeneID 81847) | 0.459 | 0.513 | 0.292
VSTM2L (GeneID 128434) | -2.07 | -1.87 | -1.87
SELP (GeneID 6403) | -0.432 | -1.03 | -0.957
PRAMEF3 (retired record) (GeneID 401940) | 0.272 | 0.119 | 0.535
CNBP (GeneID 7555) | 0.0203 | 0.509 | 0.14
LINC01235 (GeneID 401492) | 0.817 | 0.636 | 0.985
EEF1G (GeneID 1937) | -0.605 | -0.99 | -0.83
GTPBP1 (GeneID 9567) | 4.61 (active) | 3.99 | 6.14
PHF1 (GeneID 5252) | -1.6 | -1.5 | -1.23
GTF3C3 (GeneID 9330) | -1.7 | -1.79 | -1.57
LOC388638 (retired record) (GeneID 388638) | -1.05 | -1.19 | -1.51
RUNX1 (GeneID 861) | -0.097 | 0.00103 | 0.102
RAB5IF (GeneID 55969) | -0.041 | 0.946 | -0.644
RAP2B (GeneID 5912) | 0.725 | -0.0467 | 1.96
ITGAV (GeneID 3685) | 0.338 | -1.02 | -1.12
LINC01579 (GeneID 283682) | -0.729 | -0.747 | -0.65
RAB9B (GeneID 51209) | 1.15 | 2.15 | 1.31
UTP25 (GeneID 27042) | -0.869 | -0.281 | -1.1
C19orf47 (GeneID 126526) | 0.75 | -0.084 | -0.588
